In patent publication US7037647B1, “Prostate-specific membrane antigen and uses thereof” (Sloan-Kettering Institute for Cancer Research, priority 1995, dated 2006):
Entries after “also recorded” stand apart in the source; their conditions may differ. At least one compound was matched to its structure with a doubt left.

Test system: PSM mRNA expression in LNCaP cells
Test: Steroid modulation of PSM mRNA expression, ribonuclease protection assay
Format: cell-based, human
Settings: physiologic doses of steroids, 24 hours
Excerpt: A portion of the PSM cDNA was subcloned into the plasmid vector pSPORT 1 (Gibco-BRL) and the orientation of the cDNA insert relative to the flanking T7 and SP6 RNA polymerase promoters was verified by restriction analysis. Linearization of this plasmid upstream of the PSM insert followed by transcription with SP6 RNA polymerase yields a 400 nucleotide antisense RNA probe, of which 350 nucleotides should be protected from RNase digestion by PSM RNA. This probe was used in FIG. 20. Plasmid IN-20, containing a 1 kb partial PSM cDNA in the plasmid pCR II (Invitrogen) was also used for riboprobe synthesis. […] Samples were processed as per manufacturer's instructions and analyzed on 5% polyacrilamide/7M urea denaturing gels using Seq ACRYL reagents (ISS, Natick, Mass.). […] Quantitation of PSM expression was determined by using a scanning laser densitometer (LKB, Piscataway, N.J.).
LNCaP cells (2 million) were plated onto T-75 flasks in RPMI 1640 media supplemented with 5% fetal calf serum and grown 24 hours until approximately 30-40% confluent. […] Cells were grown for another 24 hours and RNA was then harvested as previously described and PSM expression analyzed by ribonuclease protection analysis.

Row | Compound | effect on PSM mRNA expression (in words)
1 | C[C@@H]1C[C@H]2[C@@H]3CCC4=CC(=O)C=C[C@]4(C)[C@@]3(F)[C@@H](O)C[C@]2(C)[C@@]1(O)C(=O)CO [Dexamethasone, dexamethasone] | little response
2 | C[C@]12CC[C@@H]3c4ccc(O)cc4CC[C@H]3[C@@H]1CC[C@@H]2O [Estradiol, estradiol] | downregulated PSM expression; also recorded: significantly diminished PSM expression
